Experimental data: PubChem BioAssay AID1259308 (NCATS, 2017)
Assay: 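Genes whose loss raises luciferase production in HEK293 cells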 (primary screen). Cell system: human HEK293 embryonic kidney cells stably expressing firefly luciferase (HEK-CMV-Luc2-Hygro). Reagents: single siRNA against human genes, 0.8 pmol siRNA per well. Time to read-out: 72 h. Read-out: 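Reporter luminescence and viable-cell signal on separate replicate plates, given as percent of non-targeting control and median/MAD z-scores, plus per-cell luciferase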. Reading the numbers: total luciferase, z-score and total luciferase, % of control: higher = more reporter protein produced. Rule for the call: 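Active when the median/MAD z-score for overall luciferase is greater than 3; a gene was taken forward for validation with new siRNAs if at least two of its three siRNAs passed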. Calls: active = raised luciferase; inactive = no rise.
The whole screen tested about 59,000 reagents; this is a random part of them. About 1,510 of them (2.6%) were called active. 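Calls use total luciferase alone and ignore viability, so some active siRNAs may act by altering cell number.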 The numbers tell different reagents against one gene apart. Not all columns of the deposit are shown. No sequences are given here.

THBS2 (thrombospondin 2) #1: total luciferase, z-score = 0.801; total luciferase, % of control = 97.8; activity call = inactive
THBS2 (thrombospondin 2) #2: total luciferase, z-score = -1.48; total luciferase, % of control = 52.5; activity call = inactive
THBS2 (thrombospondin 2) #3: total luciferase, z-score = -2.3; total luciferase, % of control = 36.2; activity call = inactive
IL1RN (interleukin 1 receptor antagonist) #1: total luciferase, z-score = -0.313; total luciferase, % of control = 75.7; activity call = inactive
IL1RN (interleukin 1 receptor antagonist) #2: total luciferase, z-score = -0.586; total luciferase, % of control = 70.2; activity call = inactive
IL1RN (interleukin 1 receptor antagonist) #3: total luciferase, z-score = -0.623; total luciferase, % of control = 69.5; activity call = inactive
TMA16 (translation machinery associated 16 homolog) #1: total luciferase, z-score = -1.13; total luciferase, % of control = 59.4; activity call = inactive
TMA16 (translation machinery associated 16 homolog) #2: total luciferase, z-score = 0.273; total luciferase, % of control = 87.3; activity call = inactive
TMA16 (translation machinery associated 16 homolog) #3: total luciferase, z-score = -0.697; total luciferase, % of control = 68; activity call = inactive
COL9A2 (collagen type IX alpha 2 chain) #1: total luciferase, z-score = 3.26; total luciferase, % of control = 147; activity call = active
COL9A2 (collagen type IX alpha 2 chain) #2: total luciferase, z-score = 0.872; total luciferase, % of control = 99.2; activity call = inactive
COL9A2 (collagen type IX alpha 2 chain) #3: total luciferase, z-score = 0.777; total luciferase, % of control = 97.3; activity call = inactive
NUDT16L1 (nudix hydrolase 16 like 1) #1: total luciferase, z-score = -0.394; total luciferase, % of control = 74; activity call = inactive
NUDT16L1 (nudix hydrolase 16 like 1) #2: total luciferase, z-score = -0.556; total luciferase, % of control = 70.8; activity call = inactive
NUDT16L1 (nudix hydrolase 16 like 1) #3: total luciferase, z-score = 0.0317; total luciferase, % of control = 82.5; activity call = inactive
ADORA2B (adenosine A2b receptor) #1: total luciferase, z-score = -0.577; total luciferase, % of control = 70.4; activity call = inactive
ADORA2B (adenosine A2b receptor) #2: total luciferase, z-score = 0.817; total luciferase, % of control = 98.1; activity call = inactive
ADORA2B (adenosine A2b receptor) #3: total luciferase, z-score = 0.0255; total luciferase, % of control = 82.4; activity call = inactive
DMXL1 (Dmx like 1) #1: total luciferase, z-score = 1.16; total luciferase, % of control = 105; activity call = inactive
DMXL1 (Dmx like 1) #2: total luciferase, z-score = 1.61; total luciferase, % of control = 114; activity call = inactive
DMXL1 (Dmx like 1) #3: total luciferase, z-score = 0.683; total luciferase, % of control = 95.5; activity call = inactive

3 entries from above, reformatted:
DMXL1 (Dmx like 1) #1
- total luciferase, z-score: 1.16
- total luciferase, % of control: 105
- activity call: inactive

DMXL1 (Dmx like 1) #2
- total luciferase, z-score: 1.61
- total luciferase, % of control: 114
- activity call: inactive

DMXL1 (Dmx like 1) #3
- total luciferase, z-score: 0.683
- total luciferase, % of control: 95.5
- activity call: inactive

Further entries follow:
COL8A2 (collagen type VIII alpha 2 chain) #1: total luciferase, z-score = 2.02; total luciferase, % of control = 122; activity call = inactive
COL8A2 (collagen type VIII alpha 2 chain) #2: total luciferase, z-score = -1.64; total luciferase, % of control = 49.2; activity call = inactive
COL8A2 (collagen type VIII alpha 2 chain) #3: total luciferase, z-score = 2.94; total luciferase, % of control = 140; activity call = inactive
RAB3IP (RAB3A interacting protein) #1: total luciferase, z-score = 0.822; total luciferase, % of control = 98.2; activity call = inactive
RAB3IP (RAB3A interacting protein) #2: total luciferase, z-score = -0.173; total luciferase, % of control = 78.4; activity call = inactive
RAB3IP (RAB3A interacting protein) #3: total luciferase, z-score = 2.77; total luciferase, % of control = 137; activity call = inactive
TRIM52 (tripartite motif containing 52) #1: total luciferase, z-score = -0.686; total luciferase, % of control = 68.2; activity call = inactive
TRIM52 (tripartite motif containing 52) #2: total luciferase, z-score = 0.242; total luciferase, % of control = 86.7; activity call = inactive
TRIM52 (tripartite motif containing 52) #3: total luciferase, z-score = 1.91; total luciferase, % of control = 120; activity call = inactive
PTPRU (protein tyrosine phosphatase receptor type U) #1: total luciferase, z-score = -0.986; total luciferase, % of control = 62.3; activity call = inactive
PTPRU (protein tyrosine phosphatase receptor type U) #2: total luciferase, z-score = -0.868; total luciferase, % of control = 64.6; activity call = inactive
PTPRU (protein tyrosine phosphatase receptor type U) #3: total luciferase, z-score = -0.00814; total luciferase, % of control = 81.7; activity call = inactive
CHCHD4 (coiled-coil-helix-coiled-coil-helix domain containing 4) #1: total luciferase, z-score = 1.77; total luciferase, % of control = 117; activity call = inactive
CHCHD4 (coiled-coil-helix-coiled-coil-helix domain containing 4) #2: total luciferase, z-score = -1.28; total luciferase, % of control = 56.4; activity call = inactive
CHCHD4 (coiled-coil-helix-coiled-coil-helix domain containing 4) #3: total luciferase, z-score = -0.345; total luciferase, % of control = 75; activity call = inactive
IGDCC3 (immunoglobulin superfamily DCC subclass member 3) #1: total luciferase, z-score = -1.19; total luciferase, % of control = 58.2; activity call = inactive
IGDCC3 (immunoglobulin superfamily DCC subclass member 3) #2: total luciferase, z-score = -2.62; total luciferase, % of control = 29.7; activity call = inactive
IGDCC3 (immunoglobulin superfamily DCC subclass member 3) #3: total luciferase, z-score = 0.231; total luciferase, % of control = 86.5; activity call = inactive
CDCA4 (cell division cycle associated 4) #1: total luciferase, z-score = 0.987; total luciferase, % of control = 102; activity call = inactive
CDCA4 (cell division cycle associated 4) #2: total luciferase, z-score = 0.502; total luciferase, % of control = 91.9; activity call = inactive
CDCA4 (cell division cycle associated 4) #3: total luciferase, z-score = 0.375; total luciferase, % of control = 89.3; activity call = inactive
